For the assay, the target named is T1, NFATc1 (endogenous, murine primary tTreg cells) (mouse (endogenous in murine primary Treg cells)) (UniProt O88942).
T1 sequence: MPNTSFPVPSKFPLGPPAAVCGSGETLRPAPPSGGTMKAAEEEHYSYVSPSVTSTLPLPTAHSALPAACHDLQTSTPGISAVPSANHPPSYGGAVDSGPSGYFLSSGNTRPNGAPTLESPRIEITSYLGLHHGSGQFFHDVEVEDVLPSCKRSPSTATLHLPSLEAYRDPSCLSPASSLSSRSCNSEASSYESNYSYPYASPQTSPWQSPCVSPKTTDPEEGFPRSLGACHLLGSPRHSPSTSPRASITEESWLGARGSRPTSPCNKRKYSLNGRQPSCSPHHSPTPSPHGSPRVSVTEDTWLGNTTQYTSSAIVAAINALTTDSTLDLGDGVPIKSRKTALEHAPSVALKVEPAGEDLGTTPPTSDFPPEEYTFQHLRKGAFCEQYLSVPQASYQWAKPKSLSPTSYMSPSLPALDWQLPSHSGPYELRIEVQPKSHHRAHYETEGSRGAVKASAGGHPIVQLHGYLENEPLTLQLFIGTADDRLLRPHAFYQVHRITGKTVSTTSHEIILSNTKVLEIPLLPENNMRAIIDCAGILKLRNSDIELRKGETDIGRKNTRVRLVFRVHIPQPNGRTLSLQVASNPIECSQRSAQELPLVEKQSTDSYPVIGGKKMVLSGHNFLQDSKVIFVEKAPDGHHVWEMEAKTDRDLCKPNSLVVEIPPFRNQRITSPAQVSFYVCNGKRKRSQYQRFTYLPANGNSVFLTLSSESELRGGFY
In words: co-IP; nuclear protein extracts of murine primary tTreg cells activated and expanded with anti-CD3/CD28 beads for 7 days; Nuclear Complex Co-IP Kit, anti-Blimp-1 (C14A4) and anti-NFATc1 (7A6) antibodies.

Sequences of proteins named here, by UniProt entry; tags and fusion partners are left off.
UniProt Q60636: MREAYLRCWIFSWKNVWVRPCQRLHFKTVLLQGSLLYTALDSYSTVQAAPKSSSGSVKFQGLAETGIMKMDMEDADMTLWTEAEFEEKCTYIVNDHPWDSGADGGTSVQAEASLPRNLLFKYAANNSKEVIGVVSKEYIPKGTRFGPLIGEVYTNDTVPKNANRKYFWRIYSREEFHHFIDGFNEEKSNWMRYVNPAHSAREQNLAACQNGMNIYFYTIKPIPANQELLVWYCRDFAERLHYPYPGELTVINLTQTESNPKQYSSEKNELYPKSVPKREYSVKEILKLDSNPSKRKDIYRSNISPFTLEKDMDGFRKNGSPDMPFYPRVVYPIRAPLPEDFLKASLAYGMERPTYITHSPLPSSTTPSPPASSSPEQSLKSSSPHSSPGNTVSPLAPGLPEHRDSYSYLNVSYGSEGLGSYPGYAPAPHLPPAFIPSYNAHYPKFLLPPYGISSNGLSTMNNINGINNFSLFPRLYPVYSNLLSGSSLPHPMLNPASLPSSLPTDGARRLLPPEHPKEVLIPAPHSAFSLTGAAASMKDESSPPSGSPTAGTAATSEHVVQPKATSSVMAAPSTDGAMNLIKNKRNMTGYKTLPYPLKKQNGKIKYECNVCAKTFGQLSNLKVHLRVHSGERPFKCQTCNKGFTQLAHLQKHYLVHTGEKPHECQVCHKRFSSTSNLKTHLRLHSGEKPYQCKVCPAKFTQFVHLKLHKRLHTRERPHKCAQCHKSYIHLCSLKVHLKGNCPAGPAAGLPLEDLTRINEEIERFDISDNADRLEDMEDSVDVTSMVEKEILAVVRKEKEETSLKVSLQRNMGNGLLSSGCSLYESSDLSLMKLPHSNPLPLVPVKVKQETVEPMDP

These are yes or no findings as the source states them, for the method shown. In cells and extracts the contact can be indirect. Some binding calls cover weakened binding; strength is not graded here.

Regarding “Blimp-1 (endogenous, murine primary tTreg cells) (from UniProt Q60636 1-856)”, the binding entry is “binds”.

Values taken from publication PMC8770984.
